The supplement of paper PMC10849652
The other results are listed elsewhere or left out.

Chains of the proteins cited; added tags and fusions are not shown. Lines headed by an entry give the natural chain unless they say otherwise; changes in a name come on top.
UniProt O43156, whole entry, looked up: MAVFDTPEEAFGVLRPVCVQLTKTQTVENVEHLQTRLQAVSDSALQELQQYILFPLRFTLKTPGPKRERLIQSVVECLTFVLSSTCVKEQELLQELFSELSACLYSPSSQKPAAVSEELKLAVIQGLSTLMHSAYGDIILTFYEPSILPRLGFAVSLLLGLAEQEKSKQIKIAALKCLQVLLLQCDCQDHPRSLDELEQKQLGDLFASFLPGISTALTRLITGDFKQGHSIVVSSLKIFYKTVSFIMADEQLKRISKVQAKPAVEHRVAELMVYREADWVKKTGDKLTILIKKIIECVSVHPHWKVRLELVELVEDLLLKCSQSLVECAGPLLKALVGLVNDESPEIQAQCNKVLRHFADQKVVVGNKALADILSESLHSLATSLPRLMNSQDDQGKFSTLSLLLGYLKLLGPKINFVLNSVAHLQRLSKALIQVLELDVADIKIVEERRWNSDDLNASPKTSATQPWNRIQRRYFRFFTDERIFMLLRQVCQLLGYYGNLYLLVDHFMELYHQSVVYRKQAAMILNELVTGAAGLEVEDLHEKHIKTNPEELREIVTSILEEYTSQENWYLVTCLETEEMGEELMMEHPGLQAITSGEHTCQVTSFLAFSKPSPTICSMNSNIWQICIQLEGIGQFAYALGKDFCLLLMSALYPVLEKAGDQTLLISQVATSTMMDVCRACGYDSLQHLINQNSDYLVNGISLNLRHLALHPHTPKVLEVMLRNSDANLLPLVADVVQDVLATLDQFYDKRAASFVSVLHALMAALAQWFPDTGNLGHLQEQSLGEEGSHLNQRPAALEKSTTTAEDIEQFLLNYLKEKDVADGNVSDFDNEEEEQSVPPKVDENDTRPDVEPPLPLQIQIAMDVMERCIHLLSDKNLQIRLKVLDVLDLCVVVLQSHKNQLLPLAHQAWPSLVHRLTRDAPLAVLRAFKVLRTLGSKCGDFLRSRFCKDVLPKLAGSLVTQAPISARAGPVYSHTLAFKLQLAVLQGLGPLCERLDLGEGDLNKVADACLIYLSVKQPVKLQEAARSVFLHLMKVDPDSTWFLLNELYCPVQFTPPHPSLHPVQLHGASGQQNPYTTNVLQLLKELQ
UniProt Q6PID6, whole entry, looked up: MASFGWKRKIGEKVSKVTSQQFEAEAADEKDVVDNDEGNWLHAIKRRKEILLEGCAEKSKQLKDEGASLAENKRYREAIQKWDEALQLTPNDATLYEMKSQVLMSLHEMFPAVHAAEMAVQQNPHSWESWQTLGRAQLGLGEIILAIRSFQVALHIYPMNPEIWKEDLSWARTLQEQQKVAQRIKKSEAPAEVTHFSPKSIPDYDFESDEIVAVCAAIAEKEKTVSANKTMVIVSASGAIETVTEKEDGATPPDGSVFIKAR
UniProt Q96F44: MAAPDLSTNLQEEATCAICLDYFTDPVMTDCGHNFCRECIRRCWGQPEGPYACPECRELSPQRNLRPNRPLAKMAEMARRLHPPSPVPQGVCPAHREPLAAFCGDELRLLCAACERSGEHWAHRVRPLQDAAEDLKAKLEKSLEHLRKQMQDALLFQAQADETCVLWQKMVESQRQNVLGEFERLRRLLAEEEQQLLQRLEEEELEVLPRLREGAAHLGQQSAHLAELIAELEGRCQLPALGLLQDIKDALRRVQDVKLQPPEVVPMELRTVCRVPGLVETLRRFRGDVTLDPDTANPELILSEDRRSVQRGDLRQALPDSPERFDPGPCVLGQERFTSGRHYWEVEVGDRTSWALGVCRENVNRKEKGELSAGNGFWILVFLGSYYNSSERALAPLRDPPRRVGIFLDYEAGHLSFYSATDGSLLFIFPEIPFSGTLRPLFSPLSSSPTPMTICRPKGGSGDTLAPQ
UniProt Q15642: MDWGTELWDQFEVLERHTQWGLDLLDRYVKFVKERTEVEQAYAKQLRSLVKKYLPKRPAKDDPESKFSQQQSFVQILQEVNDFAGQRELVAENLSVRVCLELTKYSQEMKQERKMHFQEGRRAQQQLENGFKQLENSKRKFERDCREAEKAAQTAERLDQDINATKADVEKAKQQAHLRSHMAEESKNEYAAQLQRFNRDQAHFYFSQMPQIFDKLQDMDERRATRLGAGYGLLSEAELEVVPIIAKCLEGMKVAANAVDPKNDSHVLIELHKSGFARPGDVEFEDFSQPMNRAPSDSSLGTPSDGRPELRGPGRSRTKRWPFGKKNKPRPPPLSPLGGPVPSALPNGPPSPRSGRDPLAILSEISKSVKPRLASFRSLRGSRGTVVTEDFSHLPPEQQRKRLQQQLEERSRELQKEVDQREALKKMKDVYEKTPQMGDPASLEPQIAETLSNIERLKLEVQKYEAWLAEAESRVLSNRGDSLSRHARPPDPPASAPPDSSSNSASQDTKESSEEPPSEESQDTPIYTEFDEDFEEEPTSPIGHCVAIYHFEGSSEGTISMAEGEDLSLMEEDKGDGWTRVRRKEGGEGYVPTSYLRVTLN
UniProt O15164: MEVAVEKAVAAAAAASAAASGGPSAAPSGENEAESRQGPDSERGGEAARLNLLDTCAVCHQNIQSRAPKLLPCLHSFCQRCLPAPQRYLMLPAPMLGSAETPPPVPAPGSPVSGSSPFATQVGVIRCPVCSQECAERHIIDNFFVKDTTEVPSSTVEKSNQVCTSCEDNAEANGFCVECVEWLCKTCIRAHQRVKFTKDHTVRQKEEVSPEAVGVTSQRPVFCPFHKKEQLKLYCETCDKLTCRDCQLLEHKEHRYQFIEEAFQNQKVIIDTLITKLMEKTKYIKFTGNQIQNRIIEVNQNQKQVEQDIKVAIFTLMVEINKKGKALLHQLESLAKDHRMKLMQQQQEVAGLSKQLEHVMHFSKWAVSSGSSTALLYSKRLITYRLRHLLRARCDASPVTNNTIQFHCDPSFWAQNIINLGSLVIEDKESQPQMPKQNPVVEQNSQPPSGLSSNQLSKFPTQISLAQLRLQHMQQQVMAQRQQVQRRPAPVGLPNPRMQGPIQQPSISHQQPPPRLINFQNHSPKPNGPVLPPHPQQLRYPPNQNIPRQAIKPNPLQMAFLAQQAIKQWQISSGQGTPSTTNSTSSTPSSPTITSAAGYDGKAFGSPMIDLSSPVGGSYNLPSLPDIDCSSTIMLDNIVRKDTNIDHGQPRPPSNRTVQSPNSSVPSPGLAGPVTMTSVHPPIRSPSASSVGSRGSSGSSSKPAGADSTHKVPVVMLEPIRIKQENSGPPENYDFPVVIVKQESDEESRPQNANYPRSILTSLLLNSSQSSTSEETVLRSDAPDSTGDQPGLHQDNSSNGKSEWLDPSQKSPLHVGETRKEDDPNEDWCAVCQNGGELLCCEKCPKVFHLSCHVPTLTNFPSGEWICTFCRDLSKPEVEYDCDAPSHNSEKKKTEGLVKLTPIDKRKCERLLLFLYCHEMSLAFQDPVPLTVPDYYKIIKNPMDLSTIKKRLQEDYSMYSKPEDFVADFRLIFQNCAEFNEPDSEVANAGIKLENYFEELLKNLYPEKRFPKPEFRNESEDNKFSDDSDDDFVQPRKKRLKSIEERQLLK
UniProt Q9NXH9: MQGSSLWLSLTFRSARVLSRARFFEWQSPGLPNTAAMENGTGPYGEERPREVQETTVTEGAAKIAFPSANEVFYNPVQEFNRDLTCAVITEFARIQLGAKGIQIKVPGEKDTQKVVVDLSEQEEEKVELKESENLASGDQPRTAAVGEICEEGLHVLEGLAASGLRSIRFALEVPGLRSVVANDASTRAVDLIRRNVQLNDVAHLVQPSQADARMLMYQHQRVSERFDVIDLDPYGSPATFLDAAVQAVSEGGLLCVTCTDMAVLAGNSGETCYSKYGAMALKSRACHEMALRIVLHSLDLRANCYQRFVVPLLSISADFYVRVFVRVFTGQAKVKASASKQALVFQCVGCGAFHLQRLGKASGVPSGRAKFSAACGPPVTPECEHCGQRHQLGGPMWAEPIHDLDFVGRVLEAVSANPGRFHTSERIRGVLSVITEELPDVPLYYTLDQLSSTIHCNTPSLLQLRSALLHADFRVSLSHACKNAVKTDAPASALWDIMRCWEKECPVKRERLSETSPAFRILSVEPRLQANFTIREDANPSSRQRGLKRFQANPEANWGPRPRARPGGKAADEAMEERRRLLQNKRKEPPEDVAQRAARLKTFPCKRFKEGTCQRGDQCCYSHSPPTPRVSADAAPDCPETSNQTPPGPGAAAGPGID
UniProt O75865, whole entry, looked up: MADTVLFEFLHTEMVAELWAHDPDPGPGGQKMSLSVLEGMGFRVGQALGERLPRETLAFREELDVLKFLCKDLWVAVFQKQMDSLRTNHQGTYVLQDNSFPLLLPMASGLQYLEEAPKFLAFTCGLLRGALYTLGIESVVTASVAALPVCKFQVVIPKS
UniProt Q99816: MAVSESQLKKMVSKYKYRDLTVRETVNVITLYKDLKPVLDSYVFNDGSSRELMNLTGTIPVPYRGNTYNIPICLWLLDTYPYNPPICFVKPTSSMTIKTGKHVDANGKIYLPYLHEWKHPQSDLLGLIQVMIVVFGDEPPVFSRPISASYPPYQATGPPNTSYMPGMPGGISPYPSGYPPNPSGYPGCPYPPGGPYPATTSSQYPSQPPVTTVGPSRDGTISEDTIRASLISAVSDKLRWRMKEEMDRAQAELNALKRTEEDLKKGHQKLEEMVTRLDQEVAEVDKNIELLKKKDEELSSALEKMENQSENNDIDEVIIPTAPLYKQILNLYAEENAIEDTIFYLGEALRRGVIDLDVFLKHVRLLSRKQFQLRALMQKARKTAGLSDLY
UniProt Q13630: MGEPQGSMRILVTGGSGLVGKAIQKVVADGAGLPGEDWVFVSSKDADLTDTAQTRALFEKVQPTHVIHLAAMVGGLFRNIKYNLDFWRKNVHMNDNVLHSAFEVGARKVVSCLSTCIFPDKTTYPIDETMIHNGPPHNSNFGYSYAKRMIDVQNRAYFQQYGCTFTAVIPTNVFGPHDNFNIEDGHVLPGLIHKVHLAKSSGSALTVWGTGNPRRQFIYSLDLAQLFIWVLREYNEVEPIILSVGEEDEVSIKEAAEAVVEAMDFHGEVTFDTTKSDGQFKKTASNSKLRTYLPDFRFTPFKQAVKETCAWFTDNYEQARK
UniProt Q15654: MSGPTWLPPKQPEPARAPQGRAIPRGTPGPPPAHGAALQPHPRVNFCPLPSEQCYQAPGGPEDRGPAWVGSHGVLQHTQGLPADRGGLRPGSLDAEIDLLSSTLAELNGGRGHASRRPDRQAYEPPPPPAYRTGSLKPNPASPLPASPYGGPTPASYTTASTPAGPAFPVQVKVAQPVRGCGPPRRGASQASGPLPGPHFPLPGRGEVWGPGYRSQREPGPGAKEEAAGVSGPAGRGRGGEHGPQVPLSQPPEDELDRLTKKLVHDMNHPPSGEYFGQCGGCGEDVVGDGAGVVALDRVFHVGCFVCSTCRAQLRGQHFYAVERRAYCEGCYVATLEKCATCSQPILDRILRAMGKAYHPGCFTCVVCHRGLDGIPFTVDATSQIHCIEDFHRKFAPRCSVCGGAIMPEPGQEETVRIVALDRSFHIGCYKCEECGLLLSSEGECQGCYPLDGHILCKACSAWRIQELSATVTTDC
UniProt Q9BUZ4: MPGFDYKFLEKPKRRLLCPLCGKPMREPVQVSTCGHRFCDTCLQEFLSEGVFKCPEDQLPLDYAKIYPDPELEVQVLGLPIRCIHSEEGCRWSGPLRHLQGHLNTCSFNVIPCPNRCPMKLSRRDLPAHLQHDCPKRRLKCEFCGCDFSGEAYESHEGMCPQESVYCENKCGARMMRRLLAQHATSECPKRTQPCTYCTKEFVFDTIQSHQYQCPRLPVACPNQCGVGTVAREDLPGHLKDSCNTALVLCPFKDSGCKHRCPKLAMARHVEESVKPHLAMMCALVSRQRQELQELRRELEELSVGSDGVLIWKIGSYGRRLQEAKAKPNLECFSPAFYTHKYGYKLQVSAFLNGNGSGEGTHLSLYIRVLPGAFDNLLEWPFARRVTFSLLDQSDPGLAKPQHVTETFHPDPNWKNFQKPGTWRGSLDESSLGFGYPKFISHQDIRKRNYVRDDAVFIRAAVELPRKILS
UniProt Q9BSV6: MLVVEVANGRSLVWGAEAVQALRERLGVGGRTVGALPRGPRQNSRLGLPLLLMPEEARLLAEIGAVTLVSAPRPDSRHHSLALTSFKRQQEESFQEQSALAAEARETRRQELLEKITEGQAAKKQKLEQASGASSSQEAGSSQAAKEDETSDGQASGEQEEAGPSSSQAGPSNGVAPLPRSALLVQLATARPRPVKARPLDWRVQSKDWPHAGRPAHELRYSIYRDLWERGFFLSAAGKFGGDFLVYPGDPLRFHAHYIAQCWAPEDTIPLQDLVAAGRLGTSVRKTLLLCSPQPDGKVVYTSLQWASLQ
UniProt O43617, whole entry, looked up: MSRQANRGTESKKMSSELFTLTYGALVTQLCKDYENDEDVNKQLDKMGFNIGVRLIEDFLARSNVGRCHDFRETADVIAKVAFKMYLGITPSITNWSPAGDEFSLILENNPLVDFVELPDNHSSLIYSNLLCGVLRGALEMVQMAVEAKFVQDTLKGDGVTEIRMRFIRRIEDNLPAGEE
UniProt Q86SZ2: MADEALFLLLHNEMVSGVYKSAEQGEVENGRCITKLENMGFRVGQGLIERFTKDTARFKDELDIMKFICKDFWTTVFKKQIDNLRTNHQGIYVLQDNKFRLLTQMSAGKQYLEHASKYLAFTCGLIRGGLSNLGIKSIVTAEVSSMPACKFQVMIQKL

The targets below were run with CC(C)C1=C2N=C(C=C(N2N=C1)NCC3=CC=CC=C3)NCCCCCCN (assay: log2 fold change, soluble protein after heating vs DMSO (PISA); higher = thermal stabilisation; K562 lysate, 10 uM; active = over 0.2 and 3.5 SD of the protein, either way, in both replicates (recomputed)).
Method in brief: (§1)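 Log-two fold change in thermal stability relative to solvent controls is reported from duplicates. For each sample, crude K562 extract from dounce-homogenised pellets in PBS pH 7.4 with 1 mM MgCl2, at 1 mg/mL protein, was treated with 10 μM compound for 30 min. Aliquots heated for 3 min across 48°C-58°C were pooled, brought to 0.5% NP-40 at 4°C and cleared at 21,000xg for 90 min. The supernatant was quantified by TMTpro 16plex LC-MS/MS with channel sums equalised.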

| Target | log2 fold change |
| --- | --- |
| TRAP1 (UniProt Q12931) | inactive: -0.018 |
| TTI1 (UniProt O43156) | inactive: -0.029 |
| TRNT1 (UniProt Q96Q11) | inactive: 0.009 |
| TSEN54 (UniProt Q7Z6J9) | inactive: -0.048 |
| TSN (UniProt Q15631) | inactive: 0.009 |
| TRMT2A (UniProt Q8IZ69) | inactive: 0.001 |
| TTC33 (UniProt Q6PID6) | inactive: -0.017 |
| TRMU (UniProt O75648) | inactive: 0.158 |
| TSC22D1 (UniProt Q15714) | inactive: -0.058 |
| TTC19 (UniProt Q6DKK2) | inactive: -0.006 |
| TRIM11 (UniProt Q96F44) | inactive: -0.011 |
| TRIP10 (UniProt Q15642) | inactive: -0.019 |
| TRIM24 (UniProt O15164) | inactive: 0.019 |
| TRIM28 (UniProt Q13263) | inactive: 0.007 |
| TRMT1 (UniProt Q9NXH9) | inactive: -0.026 |
| TRIM44 (UniProt Q96DX7) | inactive: -0.037 |
| TRAPPC6A isoform 2 (UniProt O75865) | inactive: -0.031 |

| Target | log2 fold change |
| --- | --- |
| TRIP10 isoform 2 (UniProt Q15642) | inactive: -0.003 |
| TRIM32 (UniProt Q13049) | inactive: -0.032 |
| TSG101 (UniProt Q99816) | inactive: 0.004 |
| TSTA3 (UniProt Q13630) | inactive: -0.007 |
| TRIP6 (UniProt Q15654) | inactive: -0.022 |
| TTLL12 (UniProt Q14166) | inactive: 0.044 |
| TRAPPC8 (UniProt Q9Y2L5) | inactive: -0.003 |
| TRAF4 (UniProt Q9BUZ4) | inactive: -0.01 |
| TSEN34 (UniProt Q9BSV6) | inactive: 0.012 |
| TRAPPC3 (UniProt O43617) | inactive: -0.015 |
| TRIM23 (UniProt P36406) | inactive: -0.056 |
| TRAPPC9 isoform 2 (UniProt Q96Q05) | inactive: -0.003 |
| TRUB1 (UniProt Q8WWH5) | inactive: 0.037 |
| TRIP4 (UniProt Q15650) | inactive: -0.027 |
| TRAFD1 (UniProt O14545) | inactive: -0.049 |
| TRAPPC6B (UniProt Q86SZ2) | inactive: -0.012 |

What follows are targets tested with CC1=C(C(CC(=O)N1)C2=CC=C(C=C2)C(F)(F)F)C(=O)NC3=C(C=C4C(=C3)C=NN4)F in the same assay as above.
Method in brief: as §1

| Target | log2 fold change |
| --- | --- |
| TRAP1 (UniProt Q12931) | inactive: -0.014 |
| TTI1 (UniProt O43156) | inactive: 0.013 |
| TRNT1 (UniProt Q96Q11) | inactive: -0.039 |
| TSEN54 (UniProt Q7Z6J9) | inactive: 0.053 |
| TSN (UniProt Q15631) | inactive: -0.025 |
| TRMT2A (UniProt Q8IZ69) | inactive: 0.012 |
| TTC33 (UniProt Q6PID6) | inactive: 0.106 |
| TRMU (UniProt O75648) | inactive: 0.058 |
| TSC22D1 (UniProt Q15714) | inactive: 0 |
| TTC19 (UniProt Q6DKK2) | inactive: 0.002 |
| TRIM11 (UniProt Q96F44) | inactive: -0.067 |
| TRIP10 (UniProt Q15642) | inactive: -0.024 |
| TRIM24 (UniProt O15164) | inactive: -0.043 |
| TRIM28 (UniProt Q13263) | inactive: -0.023 |
| TRMT1 (UniProt Q9NXH9) | inactive: -0.005 |
| TRIM44 (UniProt Q96DX7) | inactive: -0.021 |
| TRAPPC6A isoform 2 (UniProt O75865) | inactive: -0.052 |

| Target | log2 fold change |
| --- | --- |
| TRIP10 isoform 2 (UniProt Q15642) | inactive: 0.086 |
| TRIM32 (UniProt Q13049) | inactive: -0.007 |
| TSG101 (UniProt Q99816) | inactive: -0.015 |
| TSTA3 (UniProt Q13630) | inactive: -0.04 |
| TRIP6 (UniProt Q15654) | inactive: -0.033 |
| TTLL12 (UniProt Q14166) | inactive: -0.026 |
| TRAPPC8 (UniProt Q9Y2L5) | inactive: -0.002 |
| TRAF4 (UniProt Q9BUZ4) | inactive: -0.01 |
| TSEN34 (UniProt Q9BSV6) | inactive: 0.012 |
| TRAPPC3 (UniProt O43617) | inactive: -0.016 |
| TRIM23 (UniProt P36406) | inactive: 0.026 |
| TRAPPC9 isoform 2 (UniProt Q96Q05) | inactive: -0.043 |
| TRUB1 (UniProt Q8WWH5) | inactive: 0.078 |
| TRIP4 (UniProt Q15650) | inactive: -0.001 |
| TRAFD1 (UniProt O14545) | inactive: -0.062 |
| TRAPPC6B (UniProt Q86SZ2) | inactive: 0.007 |

What follows are targets tested with CC1=C(C2=C(C=C1)C(=O)C3=CC=CC=C3N2CCCN)C in the same assay as above.
Method in brief: as §1

| Target | log2 fold change |
| --- | --- |
| TRAP1 (UniProt Q12931) | inactive: 0.035 |
| TTI1 (UniProt O43156) | inactive: 0.02 |
| TRNT1 (UniProt Q96Q11) | inactive: 0.013 |
| TSEN54 (UniProt Q7Z6J9) | inactive: -0.012 |
| TSN (UniProt Q15631) | inactive: -0.034 |
| TRMT2A (UniProt Q8IZ69) | inactive: -0.007 |
| TTC33 (UniProt Q6PID6) | inactive: -0.043 |
| TRMU (UniProt O75648) | inactive: 0.027 |
| TSC22D1 (UniProt Q15714) | inactive: -0.018 |
| TTC19 (UniProt Q6DKK2) | inactive: 0.079 |
| TRIM11 (UniProt Q96F44) | inactive: -0.04 |
| TRIP10 (UniProt Q15642) | inactive: -0.025 |
| TRIM24 (UniProt O15164) | inactive: -0.021 |
| TRIM28 (UniProt Q13263) | inactive: 0 |
| TRMT1 (UniProt Q9NXH9) | inactive: -0.041 |
| TRIM44 (UniProt Q96DX7) | inactive: -0.004 |
| TRAPPC6A isoform 2 (UniProt O75865) | inactive: 0.012 |

| Target | log2 fold change |
| --- | --- |
| TRIP10 isoform 2 (UniProt Q15642) | inactive: -0.086 |
| TRIM32 (UniProt Q13049) | inactive: 0.434 |
| TSG101 (UniProt Q99816) | inactive: 0.022 |
| TSTA3 (UniProt Q13630) | inactive: -0.001 |
| TRIP6 (UniProt Q15654) | inactive: -0.01 |
| TTLL12 (UniProt Q14166) | inactive: -0.032 |
| TRAPPC8 (UniProt Q9Y2L5) | inactive: -0.027 |
| TRAF4 (UniProt Q9BUZ4) | inactive: 0.002 |
| TSEN34 (UniProt Q9BSV6) | inactive: 0.093 |
| TRAPPC3 (UniProt O43617) | inactive: 0.02 |
| TRIM23 (UniProt P36406) | inactive: -0.065 |
| TRAPPC9 isoform 2 (UniProt Q96Q05) | inactive: -0.023 |
| TRUB1 (UniProt Q8WWH5) | inactive: -0.015 |
| TRIP4 (UniProt Q15650) | inactive: -0.004 |
| TRAFD1 (UniProt O14545) | inactive: 0.049 |
| TRAPPC6B (UniProt Q86SZ2) | inactive: -0.016 |
